Among the data in PMC9803678 are binding values, retold here.

Sequences of proteins named here, by UniProt entry; tags and fusion partners are left off.
UniProt P21579: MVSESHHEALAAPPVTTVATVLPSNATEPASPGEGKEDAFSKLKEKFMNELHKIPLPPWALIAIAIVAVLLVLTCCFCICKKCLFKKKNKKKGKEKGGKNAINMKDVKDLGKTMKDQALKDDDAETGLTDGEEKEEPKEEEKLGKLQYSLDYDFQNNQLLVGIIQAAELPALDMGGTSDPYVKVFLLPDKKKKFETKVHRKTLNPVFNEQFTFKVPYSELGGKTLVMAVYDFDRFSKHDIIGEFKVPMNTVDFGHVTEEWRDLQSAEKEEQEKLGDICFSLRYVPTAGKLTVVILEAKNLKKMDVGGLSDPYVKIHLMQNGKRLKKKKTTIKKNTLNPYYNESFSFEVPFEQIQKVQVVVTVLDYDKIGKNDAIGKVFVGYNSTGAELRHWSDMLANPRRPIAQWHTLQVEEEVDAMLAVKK

The target of one assay is synaptotagmin-1 (UniProt P21579). Put plainly: pull-down; in vitro pull-down of SNAPIN-WT, T14A or T14E with synaptotagmin-1 (Supplementary Fig. S3G, H); legend and methods not shown.
The next assay addresses T1, Flag-DYRK3 (UniProt O43781).
T1 sequence: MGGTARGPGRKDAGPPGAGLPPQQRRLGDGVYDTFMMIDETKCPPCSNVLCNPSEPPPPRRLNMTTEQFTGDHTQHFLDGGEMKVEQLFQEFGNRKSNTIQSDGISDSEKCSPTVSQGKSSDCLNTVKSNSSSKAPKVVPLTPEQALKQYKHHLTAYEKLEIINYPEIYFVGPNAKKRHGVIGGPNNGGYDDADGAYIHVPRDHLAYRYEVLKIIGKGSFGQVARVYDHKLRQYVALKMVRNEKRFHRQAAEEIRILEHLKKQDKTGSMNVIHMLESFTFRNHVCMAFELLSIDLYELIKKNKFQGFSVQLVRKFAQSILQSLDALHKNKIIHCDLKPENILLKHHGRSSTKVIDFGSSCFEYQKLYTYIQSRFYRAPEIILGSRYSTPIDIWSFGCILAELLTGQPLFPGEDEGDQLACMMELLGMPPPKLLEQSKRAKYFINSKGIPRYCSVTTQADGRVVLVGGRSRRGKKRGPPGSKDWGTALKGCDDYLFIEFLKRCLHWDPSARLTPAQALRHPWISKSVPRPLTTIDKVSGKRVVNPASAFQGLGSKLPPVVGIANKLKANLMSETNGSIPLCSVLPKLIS
Put plainly: co-IP; HEK293 cells transfected 24 h with Myc-SNAPIN and Flag-DYRK3; lysates immunoprecipitated with anti-Myc (Fig. 1B) or anti-Flag (Fig. 1C) antibody, immunoblot. For orientation: Immunoblotting shows a protein as a band on a membrane.

These are yes or no findings as the source states them, for the method shown. In cells and extracts the contact can be indirect. Some binding calls cover weakened binding; strength is not graded here. For part of these data: Where a sequence is shown, tags or fusion partners need not be part of it.

B1: SNAPIN-WT (in vitro pull-down) (protein, UniProt O95295 1-136)
chain: MAGAGSAAVSGAGTPVAGPTGRDLFAEGLLEFLRPAVQQLDSHVHAVRESQVELREQIDNLATELCRINEDQKVALDLDPYVKKLLNARRRVVLVNNILQNAQERLRRLNHSVAKETARRRAMLDSGIYPPGSPGK
B1: the binding result with synaptotagmin-1 is listed as “binds”.

B2: Myc-SNAPIN (protein, UniProt O95295 1-136)
chain: MAGAGSAAVSGAGTPVAGPTGRDLFAEGLLEFLRPAVQQLDSHVHAVRESQVELREQIDNLATELCRINEDQKVALDLDPYVKKLLNARRRVVLVNNILQNAQERLRRLNHSVAKETARRRAMLDSGIYPPGSPGK
For the molecule B2, the binding entry with Flag-DYRK3 is “binds”.

B3: SNAPIN-T14E (in vitro pull-down) (protein, UniProt O95295 1-136)
chain: MAGAGSAAVSGAGEPVAGPTGRDLFAEGLLEFLRPAVQQLDSHVHAVRESQVELREQIDNLATELCRINEDQKVALDLDPYVKKLLNARRRVVLVNNILQNAQERLRRLNHSVAKETARRRAMLDSGIYPPGSPGK
Consider B3, for which the binding entry with synaptotagmin-1 is recorded as “binds”.
